Experimental data: PubChem BioAssay AID652243 (Drosophila RNAi Screening Center, 2013)
The screen tested about 24,000 reagents; shown is an unselected part of those with a known target gene and a result. Over the whole deposit, 246 (1%) were called active. 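Plates not normalised; calls are printed but the firefly/Renilla ratio behind them is not deposited; fold cut for lowering reported inconsistently.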 Raw values vary from plate to plate and are shown uncorrected. Reagents against one gene are numbered here. Reagent sequences are not shown. Not given: the amount of reagent.

Aim: 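Fly regulators of androgen-dependent reporter output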 (primary screen)
Cells: Drosophila S2R+ cells
Reagents: long dsRNA against Drosophila genes
Timing: 72 h (48 h, then 24 h hormone)
Challenge: synthetic androgen R1881 at 10 nM for 24 h
Measurement: 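Firefly light from an androgen-responsive reporter and Renilla control light per well, raw and unnormalised, for each of two replicates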
Reading the numbers: firefly reporter light: higher = more light from androgen-responsive reporter; Renilla control light: higher = more constitutive control signal (cell number, transfection)
Hit rule: 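Across duplicate plates, a knock-down whose log firefly/Renilla ratio shifted a set fold down or up from the GFP/LacZ control mean was a hit; the downward cut appears as both 1.5 and 3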
Meaning of the calls: active = hit: reporter lowered or raised; inactive = no hit

gene knocked down | dsRNA no. | firefly reporter light, replicate 1 | firefly reporter light, replicate 2 | Renilla control light, replicate 1 | Renilla control light, replicate 2 | outcome
NUCB1 (Nucleobindin 1) | 1 | 5.92e5 | 6.76e5 | 1.86e6 | 1.67e6 | inactive
NUCB1 (Nucleobindin 1) | 2 | 5.59e5 | 4.21e5 | 1.45e6 | 1.33e6 | inactive
CG14971 | 1 | 7.75e5 | 6.95e5 | 1.30e6 | 1.56e6 | inactive
Cdk5alpha (Cdk5 activator-like protein) | 1 | 83981 | 91340 | 7.09e5 | 1.07e6 | inactive
Cdk5alpha (Cdk5 activator-like protein) | 2 | 5.53e5 | 5.49e5 | 6.49e5 | 5.63e5 | inactive
Cdk5alpha (Cdk5 activator-like protein) | 3 | – | – | – | – | inactive
CG1236 | 1 | 24597 | 44636 | 3.99e5 | 3.59e5 | inactive
Pkc53E (Protein C kinase 53E) | 1 | 5.90e5 | 5.17e5 | 6.25e5 | 6.22e5 | inactive
Pkc53E (Protein C kinase 53E) | 2 | – | – | – | – | inactive
CG31380 | 1 | 1.44e5 | 2.11e5 | 1.88e6 | 1.77e6 | inactive
CG32793 | 1 | 3.74e5 | 5.01e5 | 5.46e6 | 4.02e6 | inactive
CG32793 | 2 | 1.81e5 | 2.33e5 | 1.33e6 | 1.55e6 | inactive
CG32793 | 3 | 5.22e5 | 4.16e5 | 1.23e6 | 1.28e6 | inactive
CG9616 | 1 | 63749 | 1.04e5 | 1.58e6 | 1.44e6 | inactive
CG9616 | 2 | 5.12e5 | 3.48e5 | 1.87e6 | 1.28e6 | inactive
CG5478 | 1 | 2.47e5 | 2.45e5 | 2.79e6 | 3.13e6 | inactive
Mvd (Mevalonate diphosphate decarboxylase) | 1 | 57782 | 1.04e5 | 4.48e5 | 5.61e5 | inactive
CG9632 | 1 | 1.53e5 | 1.01e5 | 2.34e6 | 1.79e6 | inactive
CG15249 | 1 | 4.32e5 | 3.86e5 | 3.97e6 | 3.27e6 | inactive
Gprk2 (G protein-coupled receptor kinase 2) | 1 | 8856 | 3774 | 1.43e5 | 1.15e5 | active
Gprk2 (G protein-coupled receptor kinase 2) | 2 | 1.05e6 | 7.69e5 | 6.62e5 | 5.38e5 | active
Gprk2 (G protein-coupled receptor kinase 2) | 3 | – | – | – | – | inactive
Gprk2 (G protein-coupled receptor kinase 2) | 4 | – | – | – | – | inactive
sra (sarah) | 1 | 59907 | 54278 | 3.56e5 | 4.95e5 | inactive

Looked up above:
CG14971, outcome = inactive
Value of CG32793 #2 under “Renilla control light, replicate 2”: 1.55e6
